## Library screen at single concentrations

By UniProt entry, the sequences of proteins in these tests, tags left out. Residues count along the entry.
UniProt P9WPC5, whole entry: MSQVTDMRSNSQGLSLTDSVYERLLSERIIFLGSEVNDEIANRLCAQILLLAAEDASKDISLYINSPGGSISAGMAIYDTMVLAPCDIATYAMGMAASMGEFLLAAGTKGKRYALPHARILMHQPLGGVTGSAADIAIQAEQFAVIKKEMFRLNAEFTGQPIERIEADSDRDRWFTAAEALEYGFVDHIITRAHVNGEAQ
UniProt P9WPC3, whole entry partner: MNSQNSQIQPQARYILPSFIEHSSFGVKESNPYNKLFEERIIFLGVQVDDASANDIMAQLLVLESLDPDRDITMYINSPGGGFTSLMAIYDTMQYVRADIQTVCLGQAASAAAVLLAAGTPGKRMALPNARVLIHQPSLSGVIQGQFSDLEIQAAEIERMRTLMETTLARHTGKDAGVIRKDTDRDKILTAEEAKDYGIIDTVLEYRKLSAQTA
UniProt I6X8D2, whole entry: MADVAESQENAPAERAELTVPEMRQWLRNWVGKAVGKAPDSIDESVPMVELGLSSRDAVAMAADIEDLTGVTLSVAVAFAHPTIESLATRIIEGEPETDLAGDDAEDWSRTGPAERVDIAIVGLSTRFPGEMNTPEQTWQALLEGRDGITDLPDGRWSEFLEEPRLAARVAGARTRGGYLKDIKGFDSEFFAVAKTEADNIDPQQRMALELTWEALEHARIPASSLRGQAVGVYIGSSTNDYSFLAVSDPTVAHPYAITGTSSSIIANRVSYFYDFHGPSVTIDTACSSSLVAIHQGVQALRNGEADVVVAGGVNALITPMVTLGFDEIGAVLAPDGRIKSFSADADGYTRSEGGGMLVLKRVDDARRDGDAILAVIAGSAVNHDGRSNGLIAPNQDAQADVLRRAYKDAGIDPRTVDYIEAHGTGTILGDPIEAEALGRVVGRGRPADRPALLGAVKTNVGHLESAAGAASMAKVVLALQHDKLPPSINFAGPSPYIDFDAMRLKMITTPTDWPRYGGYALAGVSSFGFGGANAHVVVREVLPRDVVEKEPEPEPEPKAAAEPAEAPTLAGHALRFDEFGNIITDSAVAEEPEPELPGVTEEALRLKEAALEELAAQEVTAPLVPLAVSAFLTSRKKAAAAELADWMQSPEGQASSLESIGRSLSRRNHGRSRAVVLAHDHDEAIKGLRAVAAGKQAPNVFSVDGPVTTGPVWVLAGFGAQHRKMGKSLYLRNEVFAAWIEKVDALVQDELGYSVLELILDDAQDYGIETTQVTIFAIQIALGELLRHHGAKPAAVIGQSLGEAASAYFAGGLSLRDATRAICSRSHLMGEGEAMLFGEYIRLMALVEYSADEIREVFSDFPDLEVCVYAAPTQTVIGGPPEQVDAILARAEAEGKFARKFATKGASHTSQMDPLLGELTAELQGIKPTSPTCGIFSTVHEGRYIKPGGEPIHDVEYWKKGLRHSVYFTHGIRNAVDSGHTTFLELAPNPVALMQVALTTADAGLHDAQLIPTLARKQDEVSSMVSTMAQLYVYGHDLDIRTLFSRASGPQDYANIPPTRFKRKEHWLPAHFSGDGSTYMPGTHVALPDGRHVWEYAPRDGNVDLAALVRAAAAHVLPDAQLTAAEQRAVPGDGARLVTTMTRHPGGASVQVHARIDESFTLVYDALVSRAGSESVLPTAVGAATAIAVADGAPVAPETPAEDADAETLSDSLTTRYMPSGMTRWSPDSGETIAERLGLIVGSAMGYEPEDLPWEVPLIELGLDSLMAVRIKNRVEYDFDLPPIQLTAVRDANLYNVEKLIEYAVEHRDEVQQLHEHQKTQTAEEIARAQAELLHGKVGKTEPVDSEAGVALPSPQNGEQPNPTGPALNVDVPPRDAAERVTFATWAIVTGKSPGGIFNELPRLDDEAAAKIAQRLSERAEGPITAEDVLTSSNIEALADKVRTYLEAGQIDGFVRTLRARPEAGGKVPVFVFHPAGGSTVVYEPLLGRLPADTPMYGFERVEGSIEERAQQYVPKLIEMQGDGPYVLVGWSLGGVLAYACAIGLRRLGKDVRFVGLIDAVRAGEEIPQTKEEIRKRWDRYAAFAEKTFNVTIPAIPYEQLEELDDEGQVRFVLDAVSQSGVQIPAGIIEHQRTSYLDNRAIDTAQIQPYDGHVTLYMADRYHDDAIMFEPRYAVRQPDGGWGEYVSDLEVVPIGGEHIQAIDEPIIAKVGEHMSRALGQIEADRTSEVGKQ
UniProt Q8IDJ8, 1-583: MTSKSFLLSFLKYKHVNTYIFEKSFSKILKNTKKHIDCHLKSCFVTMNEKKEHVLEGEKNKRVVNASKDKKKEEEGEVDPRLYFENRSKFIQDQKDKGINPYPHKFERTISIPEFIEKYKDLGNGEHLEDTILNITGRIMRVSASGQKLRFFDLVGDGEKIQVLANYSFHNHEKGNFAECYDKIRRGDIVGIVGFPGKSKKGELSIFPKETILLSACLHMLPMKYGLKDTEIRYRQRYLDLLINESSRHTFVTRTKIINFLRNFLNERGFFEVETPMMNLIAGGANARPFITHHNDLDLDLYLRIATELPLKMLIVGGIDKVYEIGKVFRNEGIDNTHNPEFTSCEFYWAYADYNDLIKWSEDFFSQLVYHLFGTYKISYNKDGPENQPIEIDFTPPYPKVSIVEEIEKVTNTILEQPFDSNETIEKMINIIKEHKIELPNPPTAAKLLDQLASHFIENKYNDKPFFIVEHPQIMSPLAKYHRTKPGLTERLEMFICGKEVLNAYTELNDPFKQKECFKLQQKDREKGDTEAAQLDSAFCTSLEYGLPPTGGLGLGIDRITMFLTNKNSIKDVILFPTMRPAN

A: 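ClpP1P2, Mycobacterium tuberculosis (UniProt P9WPC5 and UniProt P9WPC3). Protease assay of ClpP1P2, read by the AMC dye that it sets free. Concentration: 50 µM. Direction is inferred from only a few compounds that gave an IC50; most scored high, so higher reads as stronger inhibition. Most other retested compounds had strongly negative values. Of about 69,000 compounds tested this way, about 10 (0.015%) reached 50% or more in at least one test.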
B: 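Cell assay of Leishmania donovani living inside macrophages; the read-out is not stated. Tested at 30 µM. The record gives no direction; compounds that gave an IC50 in retests scored well above the rest, so higher reads as stronger inhibition. Of about 69,000 compounds tested this way, about 1,000 (1.5%) reached 50% or more in at least one test.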
C: 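Enzyme assay of the thioesterase domain of polyketide synthase 13; the read-out is not stated. Target: Polyketide synthase Pks13, Mycobacterium tuberculosis (UniProt I6X8D2). Compounds at 30 µM. The record gives no direction; the compounds picked for IC50 retests had high values, so higher reads as stronger inhibition. About 67,000 compounds were tested under these conditions; 0.46% (about 300) showed 50% or more at least once.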
D: 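Enzyme assay of the cytosolic lysyl-tRNA synthetase in 384-well plates, read by luminescence. Target: Lysine-tRNA ligase, Plasmodium falciparum 3D7 (UniProt Q8IDJ8). Compounds at 30 µM. Higher reads as stronger inhibition, judged from the few compounds that gave an IC50. Of about 69,000 compounds tested this way, about 49 (0.071%) reached 50% or more in at least one test.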
E: 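Assay of Toxoplasma gondii numbers, read through their beta-galactosidase reporter with a colour substrate. Compounds at 10 µM. Higher reads as fewer parasites (inferred from which compounds were picked for retests). About 67,000 compounds were tested under these conditions; 0.38% (about 260) showed 50% or more at least once.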

Results are given as percent effect.
The record does not define 0% and 100%; most values in the screen are far below 50% and negative numbers occur (in some assays of this library far below -100).
This is an unselected part of the compounds tested.
A dash means the value is not listed here; it may have been measured.

{"compound": "CS(=O)(=O)NCC(=O)NC1CCCN(c2ccccn2)C1", "stereo": "stereo not shown", "A": 17.84, "B": 8.364, "C": 1.411, "D": 0.02846, "E": 0.182}
{"compound": "COc1ccc(NC(=O)NC(C)c2nc[nH]n2)cc1", "stereo": "stereo not shown", "A": -6.589, "B": 2.937, "C": -39.67, "D": 4.568, "E": 0.4785}
{"compound": "COCc1nc(CNC2CCN(C(C)C)CC2)no1", "A": 3.481, "B": 3.426, "C": 0.6034, "D": 7.708, "E": -18.97}
{"compound": "c1cnc(N2CCC(c3csc(Nc4cnccn4)n3)CC2)nc1", "A": -32.8, "B": 43.59, "C": 32.16, "D": 0.7497, "E": -13.65}
{"compound": "Cc1c(C)n(-c2ccccn2)c2nc3c(c(N)c12)CCCCC3", "A": 1.908, "B": 70.72, "C": -20.9, "D": 2.764, "E": 23.69}
{"compound": "O=C(O)C(F)(F)F.[H][C@@]12CN(CC3CCCC3)C[C@]1([H])OCCN2c1ncc(F)cn1", "B": 28.68, "E": -0.641}
{"compound": "O=C(Cn1ccc2sccc2c1=O)NCCCc1ccccc1", "A": -19.25, "B": 1.811, "C": -1.916, "D": -4.32, "E": -20.08}
{"compound": "COc1ccnc(N2Cc3cnc(C(C)(C)C)nc3C2)n1", "A": -6.95, "B": 5.799, "C": -46.08, "D": 0.9615, "E": 6.095}
{"compound": "Cc1ccc(CN2CCC(O)(Cn3nc(-c4cccs4)oc3=O)CC2)o1.O=C(O)CC(O)(CC(=O)O)C(=O)O", "B": -14.66, "E": 14.72}
{"compound": "O=C(CC1OCCc2ccccc21)NCC1(O)CCCCC1", "stereo": "stereo not shown", "A": -6.294, "B": 14.08, "C": -24.19, "D": 3.477, "E": -2.3}
{"compound": "CN1CCc2[nH]cnc2C12CCN(Cc1ccc(S(C)(=O)=O)cc1)CC2", "A": -4.14, "B": 5.754, "C": -13.92, "D": 4.573, "E": 3.8}
{"compound": "Cc1nn(C)cc1-c1ccnc(NCCN)n1", "A": 2.382, "B": 5.711, "C": -2.626, "D": 6.285, "E": -40.1}
{"compound": "OCC1(NCc2cccc(-n3cccn3)c2)CCOCC1", "A": -7.553, "B": -7.369, "C": -6.984, "D": -3.061, "E": 3.79}
{"compound": "[H][C@@]12CCN(S(C)(=O)=O)[C@@]1([H])CCN2C(=O)c1cnoc1C", "B": 18.62, "E": 15.77}
{"compound": "Cc1nc[nH]c1CN1CCN(C(=O)CCC(F)(F)F)[C@H]2CS(=O)(=O)C[C@H]21", "A": -8.49, "D": 1.125}
{"compound": "CCCc1nc(NCCCOC)c2c(n1)c(C)nn2CC", "A": 7.242, "B": -43.63, "C": -8.668, "D": -1.52, "E": 90.71}

The last 2 entries again:

Compound,A,B,C,D,E
Cc1nc[nH]c1CN1CCN(C(=O)CCC(F)(F)F)[C@H]2CS(=O)(=O)C[C@H]21,-8.49,-,-,1.125,-
CCCc1nc(NCCCOC)c2c(n1)c(C)nn2CC,7.242,-43.63,-8.668,-1.52,90.71

From ChEMBL document CHEMBL3988442, “University of Dundee, Small-Polar-MMV Screening Library” (2021).